Measurements published in patent US10858384B2, “Synthetic molecule constructs” (KODE BIOTECH LIMITED, priority 2004, dated 2020).
At least one structure is not confirmed: it was looked up by name or label, or the drawing left a doubt. Marks after values point to notes of the source that are not given here.

Tested on: group O red blood cells (RBCs)
Assay: Tube serology of group O RBCs transformed at 37° C. with synthetic glycolipids
Type: cell-based, human
Experimental: Washed packed group O red blood cells (RBCs) (3 parts by volume) and the synthetic glycolipid solution (1 part by volume, varying concentrations) were added to an eppendorf tube. The tube was incubated in a 37° C. waterbath for one hour, mixing every 15 minutes. […]
Tube serology and Diamed gel-card results for RBCs transformed with the different synthetic molecule constructs are provided in Table 38. Results for the stability of the RBCs transformed with the different synthetic glycolipids at different concentrations are provided in Tables 39 to 44.

CCCCCCCC/C=C\CCCCCCCC(=O)OC[C@H](COP(=O)(O)OCCNC(=O)CCCCC(=O)NCCCO[C@@H]1O[C@H](CO)[C@H](O)[C@H](O[C@H]2O[C@H](CO)[C@H](O)[C@H](O)[C@H]2O)[C@H]1O[C@@H]1O[C@@H](C)[C@@H](O)[C@@H](O)[C@@H]1O)OC(=O)CCCCCCC/C=C\CCCCCCCC [Btri-sp-Ad-DOPE (VI)]
Agglutination, manual tube serology, Albaclone anti-B (0.25 mg/mL, Day 2, Alsevers): 2+ | Agglutination, manual tube serology, Bioclone anti-B (0.25 mg/mL, Day 2, Alsevers): 1+ | Agglutination, manual tube serology, Albaclone anti-B (0.25 mg/mL, Day 2, Cellstab): 2+ | Agglutination, manual tube serology, Bioclone anti-B (0.25 mg/mL, Day 2, Cellstab): 1+ | Agglutination, manual tube serology, Albaclone anti-B (0.25 mg/mL, Day 9, Alsevers): 2+ | Agglutination, manual tube serology, Bioclone anti-B (0.25 mg/mL, Day 9, Alsevers): 2+ | Agglutination, manual tube serology, Albaclone anti-B (0.25 mg/mL, Day 9, Cellstab): 3+ | Agglutination, manual tube serology, Bioclone anti-B (0.25 mg/mL, Day 9, Cellstab): 2+ | Agglutination, manual tube serology, Albaclone anti-B (0.25 mg/mL, Day 16, Alsevers): 3+ | Agglutination, manual tube serology, Bioclone anti-B (0.25 mg/mL, Day 16, Alsevers): 2+ | Agglutination, manual tube serology, Albaclone anti-B (0.25 mg/mL, Day 16, Cellstab): 2+ | Agglutination, manual tube serology, Bioclone anti-B (0.25 mg/mL, Day 16, Cellstab): 2+ | Agglutination, manual tube serology, Albaclone anti-B (0.25 mg/mL, Day 23, Alsevers): 3+ | Agglutination, manual tube serology, Bioclone anti-B (0.25 mg/mL, Day 23, Alsevers): 3+ | Agglutination, manual tube serology, Albaclone anti-B (0.25 mg/mL, Day 23, Cellstab): 3+ | Agglutination, manual tube serology, Bioclone anti-B (0.25 mg/mL, Day 23, Cellstab): 3+ | Agglutination, manual tube serology, Albaclone anti-B (0.25 mg/mL, Day 30, Alsevers): 2+ | Agglutination, manual tube serology, Bioclone anti-B (0.25 mg/mL, Day 30, Alsevers): 2+ | Agglutination, manual tube serology, Albaclone anti-B (0.25 mg/mL, Day 30, Cellstab): 2+ | Agglutination, manual tube serology, Bioclone anti-B (0.25 mg/mL, Day 30, Cellstab): 2+ | Agglutination, manual tube serology, Albaclone anti-B (0.25 mg/mL, Day 37, Alsevers): 1+ | Agglutination, manual tube serology, Bioclone anti-B (0.25 mg/mL, Day 37, Alsevers): 1+ | Agglutination, manual tube serology, Albaclone anti-B (0.25 mg/mL, Day 37, Cellstab): 2+/1+ | Agglutination, manual tube serology, Bioclone anti-B (0.25 mg/mL, Day 37, Cellstab): 1+ | Agglutination, manual tube serology, Albaclone anti-B (0.25 mg/mL, Day 44, Alsevers): 1+ | Agglutination, manual tube serology, Albaclone anti-B (0.25 mg/mL, Day 51, Alsevers): 2+ | Agglutination, manual tube serology, Bioclone anti-B (0.25 mg/mL, Day 51, Alsevers): 2+ | Agglutination, manual tube serology, Bioclone anti-B (0.25 mg/mL, Day 51, Cellstab): 2+ | Agglutination, manual tube serology, Albaclone anti-B (0.5 mg/mL, Day 2, Alsevers): 3+ | Agglutination, manual tube serology, Bioclone anti-B (0.5 mg/mL, Day 2, Alsevers): 1+ | Agglutination, manual tube serology, Albaclone anti-B (0.5 mg/mL, Day 2, Cellstab): 2+ | Agglutination, manual tube serology, Bioclone anti-B (0.5 mg/mL, Day 2, Cellstab): 2+ | Agglutination, manual tube serology, Albaclone anti-B (0.5 mg/mL, Day 9, Alsevers): 4+ | Agglutination, manual tube serology, Bioclone anti-B (0.5 mg/mL, Day 9, Alsevers): 3+ | Agglutination, manual tube serology, Albaclone anti-B (0.5 mg/mL, Day 9, Cellstab): 4+ | Agglutination, manual tube serology, Bioclone anti-B (0.5 mg/mL, Day 9, Cellstab): 4+ | Agglutination, manual tube serology, Albaclone anti-B (0.5 mg/mL, Day 16, Alsevers): 4+ | Agglutination, manual tube serology, Bioclone anti-B (0.5 mg/mL, Day 16, Alsevers): 4+ | Agglutination, manual tube serology, Albaclone anti-B (0.5 mg/mL, Day 16, Cellstab): 4+ | Agglutination, manual tube serology, Bioclone anti-B (0.5 mg/mL, Day 16, Cellstab): 4+ | Agglutination, manual tube serology, Albaclone anti-B (0.5 mg/mL, Day 23, Alsevers): 4+ | Agglutination, manual tube serology, Bioclone anti-B (0.5 mg/mL, Day 23, Alsevers): 4+ | Agglutination, manual tube serology, Albaclone anti-B (0.5 mg/mL, Day 23, Cellstab): 4+ | Agglutination, manual tube serology, Bioclone anti-B (0.5 mg/mL, Day 23, Cellstab): 4+ | Agglutination, manual tube serology, Albaclone anti-B (0.5 mg/mL, Day 30, Alsevers): 3+ | Agglutination, manual tube serology, Bioclone anti-B (0.5 mg/mL, Day 30, Alsevers): 2+ | Agglutination, manual tube serology, Albaclone anti-B (0.5 mg/mL, Day 30, Cellstab): 3+ | Agglutination, manual tube serology, Bioclone anti-B (0.5 mg/mL, Day 30, Cellstab): 3+^o | Agglutination, manual tube serology, Albaclone anti-B (0.5 mg/mL, Day 37, Alsevers): 2+ | Agglutination, manual tube serology, Bioclone anti-B (0.5 mg/mL, Day 37, Alsevers): 2+ | Agglutination, manual tube serology, Albaclone anti-B (0.5 mg/mL, Day 37, Cellstab): 3+ | Agglutination, manual tube serology, Bioclone anti-B (0.5 mg/mL, Day 37, Cellstab): 3+ | Agglutination, manual tube serology, Albaclone anti-B (0.5 mg/mL, Day 44, Alsevers): 3+ | Agglutination, manual tube serology, Bioclone anti-B (0.5 mg/mL, Day 44, Alsevers): 3+ | Agglutination, manual tube serology, Albaclone anti-B (0.5 mg/mL, Day 44, Cellstab): 4+ | Agglutination, manual tube serology, Bioclone anti-B (0.5 mg/mL, Day 44, Cellstab): 4+ | Agglutination, manual tube serology, Albaclone anti-B (0.5 mg/mL, Day 51, Alsevers): 3+ | Agglutination, manual tube serology, Bioclone anti-B (0.5 mg/mL, Day 51, Alsevers): 3+ | Agglutination, manual tube serology, Albaclone anti-B (0.5 mg/mL, Day 51, Cellstab): 4+ | Agglutination, manual tube serology, Bioclone anti-B (0.5 mg/mL, Day 51, Cellstab): 4+ | Agglutination, manual tube serology, Albaclone anti-B (1 mg/mL, Day 2, Alsevers): 3+ | Agglutination, manual tube serology, Bioclone anti-B (1 mg/mL, Day 2, Alsevers): 2+ | Agglutination, manual tube serology, Albaclone anti-B (1 mg/mL, Day 2, Cellstab): 3+ | Agglutination, manual tube serology, Bioclone anti-B (1 mg/mL, Day 2, Cellstab): 2+ | Agglutination, manual tube serology, Albaclone anti-B (1 mg/mL, Day 9, Alsevers): 4+ | Agglutination, manual tube serology, Bioclone anti-B (1 mg/mL, Day 9, Alsevers): 4+ | Agglutination, manual tube serology, Albaclone anti-B (1 mg/mL, Day 9, Cellstab): 4+ | Agglutination, manual tube serology, Bioclone anti-B (1 mg/mL, Day 9, Cellstab): 4+ | Agglutination, manual tube serology, Albaclone anti-B (1 mg/mL, Day 16, Alsevers): 4+ | Agglutination, manual tube serology, Bioclone anti-B (1 mg/mL, Day 16, Alsevers): 4+ | Agglutination, manual tube serology, Albaclone anti-B (1 mg/mL, Day 16, Cellstab): 4+ | Agglutination, manual tube serology, Bioclone anti-B (1 mg/mL, Day 16, Cellstab): 4+ | Agglutination, manual tube serology, Albaclone anti-B (1 mg/mL, Day 23, Alsevers): 4+ | Agglutination, manual tube serology, Bioclone anti-B (1 mg/mL, Day 23, Alsevers): 4+ | Agglutination, manual tube serology, Albaclone anti-B (1 mg/mL, Day 23, Cellstab): 4+ | Agglutination, manual tube serology, Bioclone anti-B (1 mg/mL, Day 23, Cellstab): 4+ | Agglutination, manual tube serology, Albaclone anti-B (1 mg/mL, Day 30, Alsevers): 3+ | Agglutination, manual tube serology, Bioclone anti-B (1 mg/mL, Day 30, Alsevers): 2+ | Agglutination, manual tube serology, Albaclone anti-B (1 mg/mL, Day 30, Cellstab): 4+ | Agglutination, manual tube serology, Bioclone anti-B (1 mg/mL, Day 30, Cellstab): 3+^o | Agglutination, manual tube serology, Albaclone anti-B (1 mg/mL, Day 37, Alsevers): 3+ | Agglutination, manual tube serology, Bioclone anti-B (1 mg/mL, Day 37, Alsevers): 3+ | Agglutination, manual tube serology, Albaclone anti-B (1 mg/mL, Day 37, Cellstab): 3+ | Agglutination, manual tube serology, Bioclone anti-B (1 mg/mL, Day 37, Cellstab): 4+^o | Agglutination, manual tube serology, Albaclone anti-B (1 mg/mL, Day 44, Alsevers): 4+ | Agglutination, manual tube serology, Bioclone anti-B (1 mg/mL, Day 44, Alsevers): 3+ | Agglutination, manual tube serology, Albaclone anti-B (1 mg/mL, Day 44, Cellstab): 4+ | Agglutination, manual tube serology, Bioclone anti-B (1 mg/mL, Day 44, Cellstab): 4+ | Agglutination, manual tube serology, Albaclone anti-B (1 mg/mL, Day 51, Alsevers): 3+ | Agglutination, manual tube serology, Bioclone anti-B (1 mg/mL, Day 51, Alsevers): 4+ | Agglutination, manual tube serology, Albaclone anti-B (1 mg/mL, Day 51, Cellstab): 4+ | Agglutination, manual tube serology, Bioclone anti-B (1 mg/mL, Day 51, Cellstab): 4+
